Assay results as given in article doi:10.1101/2024.07.30.605799 (bioRxiv, 2024).
Results are given in words; binding and its absence hold for the method and conditions named.

Target: human CAD DHO domain bearing S1538L (human) (UniProt P27708)
Assay: SEC

B1: human CAD DHO domain bearing S1538L (domain or fragment, UniProt P27708 1456-1846, looked up)
chain: MTSQKLVRLPGLIDVHVHLREPGGTHKEDFASGTAAALAGGITMVCAMPNTRPPIIDAPALALAQKLAEAGARCDFALFLGALSENAGTLGTVAGSAAGLKLYLNETFSELRLDSVVQWMEHFETWPSHLPIVAHAEQQTVAAVLMVAQLTQRSVHICHVARKEEILLIKAAKARGLPVTCEVAPHHLFLSHDDLERLGPGKGEVRPELGSRQDVEALWENMAVIDCFASDHAPHTLEEKCGSRPPPGFPGLETMLPLLLTAVSEGRLSLDDLLQRLHHNPRRIFHLPPQEDTYVEVDLEHEWTIPSHMPFSKAHWTPFEGQKVKGTVRRVVLRGEVAYIDGQVLVPPGYGQDVRKWPQGAVPQLPPSAPATSEMTTTPERPRRGIPGLPD
modifications: carboxylated lysine K1556
  binding: no binding (condition: with 2 mM Ca-Asp)
